The exact form of at least one protein or probe is not confirmed. A negative result means that nothing was seen under these conditions.

This is an account of results in PMC12099206.

The test system of the first data set is GST-CmARF3 (Chrysanthemum morifolium 'Jinba'). Kind of data set: EMSA. As to conditions: LightShift Chemiluminescent EMSA Kit (Thermo), 6-10 ug CmARF3 protein; pH and temperature not stated; recombinant protein; protein details: N-terminal GST (pET-60-DEST); label: 5' biotin.
“AGACAATCGGTATAACGAGACATTATAAATATTAAAACCTGGTCAGTAAAACCTGCATCACTCTTATATCTTAACGCAAGGATATACGCCCACATGTCATGGATCCTCTATGGGATGACC (double strand) [mP42]”: the binding result is “no binding”.
Still for that read-out and setting: with “AGACAATCGGTATAACGATCCATTATAAATATTAAAACCTGGTCAGTAAAACCTGCATCACTCTTATATCTTAACGCAAGGATATACGCCCACATGTCATGGATCCTCTATGGGATGACC (double strand) [mP412]” the entry was “no binding”; with “AGACAATCGGTATAACGATCCATTATAAATATTAAAACCTGGTCAGTAAAACCTGCATCACTCTTATATCTTAACGCAAGGATATACGCCCACATGTCATGTCTCCTCTATGGGATGACC (double strand) [mP41]”, “no binding”.
On the same count and under the same terms, under “AGTGCATTGAGGTAGACAATCGGTATAACGAGACATTATAAATATTAAAACCTGGTCAG (double strand) [P1]” stands “no binding”.
In the case of “AGTGCATTGAGGTAGACAATCGGTATAACGATCCATTATAAATATTAAAACCTGGTCAG (double strand) [mP1]”, the binding result was “no binding”.
Turning to “ATATATGGCCCACCCACCCATGTGCCCTCCTGGATCCACCAGCTCCTGCCGCTCAATCA (double strand) [mP3]”, the binding result is recorded as “no binding”.
Still for that read-out and setting: under “ATATATGGCCCACCCACCCATGTGCCCTCCTGTCTCCACCAGCTCCTGCCGCTCAATCA (double strand) [P3]” stands “no binding”; under “TTAACGCAAGGATATACGCCCACATGTCATGGATCCTCTATGGGATGACCCTCACGTGG (double strand) [mP2]”, “no binding”; under “TTAACGCAAGGATATACGCCCACATGTCATGTCTCCTCTATGGGATGACCCTCACGTGG (double strand) [P2]”, “no binding”.

The data set is the same for the next values; noted with them: competed by unlabeled P4; LightShift Chemiluminescent EMSA Kit (Thermo), 6-10 ug CmARF3 protein; pH and temperature not stated; recombinant protein; protein details: N-terminal GST (pET-60-DEST); label: 5' biotin.
With “AGACAATCGGTATAACGAGACATTATAAATATTAAAACCTGGTCAGTAAAACCTGCATCACTCTTATATCTTAACGCAAGGATATACGCCCACATGTCATGTCTCCTCTATGGGATGACC (double strand) [P4]”, the binding result was “binds”.
